Data source: PubChem BioAssay AID602196 (INSERM, 2012)
Aim: 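Modifiers of cisplatin sensitivity in A549 cells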. Cells: human A549 lung cancer cells. Reagent: siRNA pair against human genes. Timing: 48 h transfection before cisplatin; time from cisplatin to read-out not stated. Treatment: cisplatin at a dose killing half of control-siRNA cells; exact dose and duration not given. Measurement: 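Shift in cisplatin death relative to control siRNA, from -50 (all cells die) to +50 (no cells die); siRNAs harmful on their own scored 0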. Reading the numbers: two-siRNA summed score (-2 to +2): higher = both siRNAs protect from cisplatin killing; -2 means both sensitise. Call rule: 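Each siRNA scores 0 if harmful alone by LDH or WST-1, otherwise +1 if it reduces and -1 if it increases cisplatin killing; a gene is active when both siRNAs agree (sum +2 or -2)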. Calls: active = both siRNAs shift cisplatin killing the same way; inactive = no consistent shift, or siRNA harmful alone.
Here is one part, drawn at random, of about 23,000 reagents. 455 of them (2%) were called active. 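Active includes both protection and sensitisation; some change values fall well beyond the stated -50 to +50 range.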 A number with no mark means an inactive call. Further read-outs or replicates are left out here. The record does not give: the amount of reagent.

gene symbol | two-siRNA summed score (-2 to +2)
OR5I1 | 0
ZC3H11D | 0
PIGT | 0
RREB1 | 0
PDRG1 | 0
TP53TG5 | 0
SHROOM3 | 0
SEC22B | 0
USP47 | -1
LOC441215 | 0
MED21 | -1
IL25 | -1
MGAM2 | 0
LOC402689 | 0
NGDN | 0
SEPHS1 | 0
SLC38A6 | 0
LOC339263 | 0
OSTM1 | 0
LOC441328 | 0
B3GALT4 | 0
HSPG2 | -1
FBXL7 | 0
LOC392550 | 1
SHC4 | 0
DIAPH1 | 0

Continued (2 carried over from the part before).
gene symbol | two-siRNA summed score (-2 to +2)
SHC4 | 0
DIAPH1 | 0
PF4V1 | -1
MINPP1 | 1
IL17B | -1
STIMATE | 0
NOAZFP | 0
KLF13 | -1
VDR | 0
UBXN8 | 0
TRIM22 | 0
PTPN20 | 0
PMPCB | -1
PUS7L | 0
MMP7 | -1
